Library screen at single concentrations

Data taken from ChEMBL document CHEMBL3988442, “University of Dundee, Small-Polar-MMV Screening Library” (2021).

A: 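Whole-parasite assay of Trypanosoma brucei over 72 hours; the read-out is not stated. Concentration: 30 µM. Higher reads as stronger inhibition (inferred: compounds with an IC50 in retests scored well above the rest). Values scatter widely below zero; nearly all retest evidence comes from the higher of the two concentrations used. Size under these conditions: about 64,000 compounds, about 940 of them at 50% or above in at least one test.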
B: 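Assay of Toxoplasma gondii numbers, read through their beta-galactosidase reporter with a colour substrate. Compounds at 10 µM. Higher reads as fewer parasites (inferred from which compounds were picked for retests). Size under these conditions: about 67,000 compounds, about 260 of them at 50% or above in at least one test.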

Each number is a percent effect as filed.
The record does not define 0% and 100%; most values in the screen are far below 50% and negative numbers occur (in some assays of this library far below -100).
The compounds are a random part of those screened.
A dash means the value is not listed here; it may have been measured.

structure,A,B
Cc1ccc(S(=O)(=O)NCCc2ccoc2)s1,-4.34,5.728
COc1cccc(NC(=O)NCC2CCCN(C3CCOCC3)C2)c1 (centres undefined),-33.76,10.73
CN(C)CCNC(=O)CCC1CCN(C(=O)c2ccc(O)cn2)CC1,-25.41,21.9
Cc1nccc(N2CCCC(C)(C(=O)NC3CCCC3)C2)n1 (centres undefined),4.678,9.849
CCCN(CCS(C)(=O)=O)C1CCc2ccccc2C1 (centres undefined),1.577,-7.016
CC(=O)N1CCC2(CC1)C(=O)N(c1cccnc1)c1ccc(F)cc12,-,-18.16
[H][C@@]12C[C@H](C(=O)N3CCOCC3)[C@@]([H])(CN(S(C)(=O)=O)C1)O2,-5.768,-6.028
O=C(Cc1cccnc1)N1CCCC2(CCN(C3CCOCC3)C2)C1.O=C(O)C(F)(F)F.O=C(O)C(F)(F)F (centres undefined),-25.64,-5.485
CCN1CCCC(O)(CN(C)Cc2ccc(C)o2)C1 (centres undefined),-20.02,17.61
CC(=O)N1CCC2(CC1)c1ncc(-c3ccccc3)n1CCN2C(C)=O,-13.4,20.56
O=C(NCC1CCCOC1)c1ccc(-c2cccs2)[nH]c1=O (centres undefined),-22.13,2.466
CN(C)c1nc2c(c(NCc3cc(O)ncn3)n1)CCCC2,-21.55,23.78
O=C(O)C(F)(F)F.O=C(O)C(F)(F)F.O=C(O)c1cc2c(nc1N1CCCC1)CCN(C1CCOCC1)CC2,-38.04,-35.67
COc1ccc(COCC(O)CSc2ccc(NC(C)=O)cc2)cc1 (centres undefined),-,0.6073
[H][C@@]12CN(c3ccc(Cl)cn3)C[C@]1([H])N(CCc1ccc(F)cc1)C(=O)O2,5.509,14.78
O=C1CC2(CCN(S(=O)(=O)C3CC3)C2)CN1c1cncnc1 (centres undefined),-0.7847,0.4274
CCCc1n[nH]c(C2CN(C(=O)c3cccc4[nH]ncc34)CCO2)n1 (centres undefined),-12.87,-1.754
O=C(NCCNCc1cccc2c1OCCCO2)C1CCCC1,-11.15,7.135
O=c1c(S(=O)(=O)N2CCCCC2)cccn1Cc1ccccc1Cl,-2.466,4.387
CCOCc1nc2c(c(NC(COC)c3ccccn3)n1)CCNCC2 (centres undefined),-3.426,-9.455
Cn1c(=O)c2cc(C(=O)NCCOCC(F)(F)F)ccc2n(C)c1=O,-42.38,-0.345
N#Cc1cn(C2CC2)c(=O)n(CC(O)c2ccc(F)cc2)c1=O (centres undefined),-,-44.47
CCS(=O)(=O)c1ccccc1N1CCC(N)CC1,-7.916,1.244
O=C(O)C(F)(F)F.[H][C@]12CCN(c3ncccn3)[C@@]1([H])CC[C@H](COCc1csc(C)n1)O2,-18.71,-2.429
Cn1nc(CNC(=O)c2ccc(Cl)cc2)c2c1CCOC2,33.31,-2.328
CCOc1ncnc2c1CCN(C(=O)c1ccncc1F)CC2.O=C(O)C(F)(F)F,-4.871,-2.076
Oc1ccc([C@H]2Oc3cc(O)cc(O)c3C[C@@H]2O)cc1,-6.928,-4.196
Cc1csc2ncnc(N3CCCC(Cn4cc(C(C)(C)O)nn4)C3)c12 (centres undefined),1.219,-2.277
COc1ccnc(N2CCN(C(=O)c3cc(C4CC4)[nH]n3)CC2)n1,-25.41,-5.739
Cc1noc(C)c1CN(C)C(=O)C1CCCN1S(N)(=O)=O (centres undefined),-47.1,-2.483
[H][C@@]12COC[C@]1(CNS(C)(=O)=O)CN(C(=O)c1cccn1C)C2,-18,-6.321
Cc1ccc(C)c(CC(=O)NC2(C#N)CCOCC2)c1,-28.08,4.141
COc1ccc(CCN2CC(c3nc(CSC)no3)CCC2=O)cc1 (centres undefined),-3.457,-3.806
c1ccc(-c2cc(NCCCC3CCOC3)n3nccc3n2)cc1 (centres undefined),35.81,3.862
CCCn1ncc(C(=O)N(C)Cc2n[nH]c3c2CCC3)c1C,-,-18.71
COc1ccsc1C(=O)NC1CCN(c2cccc(F)c2)CC1,-39.16,37.52
Cc1ccc(CN(C)C(=O)CCn2c(=O)n(C)c3ccccc32)o1,-30.18,-1.096
CCC[C@H]1CN(CCS(C)(=O)=O)C[C@@H]1NC(=O)c1ccn(C)n1,-52.14,5.807
O=C(O)C1(Cc2ccc(F)cc2F)CCCN(Cc2ccncc2)C1 (centres undefined),-71.7,-18.4
CC(c1ccccn1)N(C)C(=O)CN1CCN(c2ccccn2)CC1 (centres undefined),-54.24,2.496
Cn1ncc(C(=O)OCC2CC(=O)N(c3ccccc3)C2)c1C(F)F (centres undefined),17.07,0.3544
O=S(=O)(CC1CCCCC1)NCc1ccnc(O)c1,-0.7421,3.121
CC(=O)N1N=C(c2cccs2)OC1C(=O)Nc1ccc(C(C)C)cc1 (centres undefined),8.723,-5.566

3 of the entries, repeated:

structure	A	B
[H][C@@]12CN(c3ccc(Cl)cn3)C[C@]1([H])N(CCc1ccc(F)cc1)C(=O)O2	5.509	14.78
Cn1nc(CNC(=O)c2ccc(Cl)cc2)c2c1CCOC2	33.31	-2.328
CCN1CCCC(O)(CN(C)Cc2ccc(C)o2)C1 (centres undefined)	-20.02	17.61